Data reported in article PMC4995024, “Ligand Binding at the α4-α4 Agonist-Binding Site of the α4β2 nAChR Triggers Receptor Activation through a Pre-Activated Conformational State” (PLoS ONE, 2016).

By UniProt entry, the sequences of proteins in these tests, tags left out. Residues count along the entry.
UniProt P17787, 26-502 limits assumed: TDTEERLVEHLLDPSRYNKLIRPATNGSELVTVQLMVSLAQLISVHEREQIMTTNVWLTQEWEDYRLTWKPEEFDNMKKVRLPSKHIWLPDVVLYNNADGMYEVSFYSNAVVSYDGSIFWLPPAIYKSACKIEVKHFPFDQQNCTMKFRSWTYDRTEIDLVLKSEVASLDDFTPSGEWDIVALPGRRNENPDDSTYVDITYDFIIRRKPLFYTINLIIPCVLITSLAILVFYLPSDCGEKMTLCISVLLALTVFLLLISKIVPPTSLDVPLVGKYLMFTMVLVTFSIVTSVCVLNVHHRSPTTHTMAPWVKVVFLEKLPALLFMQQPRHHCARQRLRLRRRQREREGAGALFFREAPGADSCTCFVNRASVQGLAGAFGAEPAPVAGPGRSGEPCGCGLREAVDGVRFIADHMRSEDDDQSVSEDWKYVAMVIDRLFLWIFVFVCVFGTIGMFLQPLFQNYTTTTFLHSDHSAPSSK
UniProt P43681, 29-627 limits assumed: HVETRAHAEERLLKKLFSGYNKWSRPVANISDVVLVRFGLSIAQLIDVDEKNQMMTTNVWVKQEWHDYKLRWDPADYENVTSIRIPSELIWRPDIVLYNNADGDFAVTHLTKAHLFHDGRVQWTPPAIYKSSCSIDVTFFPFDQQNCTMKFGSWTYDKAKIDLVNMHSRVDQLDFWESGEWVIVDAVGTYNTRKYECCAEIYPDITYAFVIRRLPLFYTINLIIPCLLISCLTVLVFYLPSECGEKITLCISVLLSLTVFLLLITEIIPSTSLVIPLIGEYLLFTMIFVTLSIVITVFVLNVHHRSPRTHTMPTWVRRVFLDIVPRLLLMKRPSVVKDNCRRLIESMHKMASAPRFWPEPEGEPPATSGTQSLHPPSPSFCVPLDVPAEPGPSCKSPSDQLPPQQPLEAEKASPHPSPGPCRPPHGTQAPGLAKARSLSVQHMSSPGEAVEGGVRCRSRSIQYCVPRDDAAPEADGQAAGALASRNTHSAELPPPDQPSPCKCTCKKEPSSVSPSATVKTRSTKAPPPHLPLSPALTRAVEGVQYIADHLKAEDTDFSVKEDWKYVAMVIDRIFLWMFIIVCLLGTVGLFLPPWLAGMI

Target: 3α4:2β2 nAChR (Homo sapiens, UniProt P17787+P43681)
Assay: Two-electrode voltage-clamp electrophysiology in Xenopus oocytes, WT 3α4:2β2 receptor
Assay type: cell-based
Conditions: 3α4:2β2, ligand alone; Hill co-efficient of one

CCOc1cncc(/C=C/CCNC)c1 [TC-2559]
EC50: 3.3 µM and 640 nM

Certain results were filed several times, with different values. The list is limited to them. The source may hold further records. Results that share an entry differ for a reason that is not stated; some may be repeats, others may stem from another dose, organism or construct than stated.
